Measured values from patent publication US20230295301A1.
No constants are given. Whether binding was seen depends on the method and setting. Some binding calls cover weakened binding; strength is not graded here.

By UniProt entry, the sequences of proteins in these tests, tags left out. Where a name states a change or a piece, a line headed by the entry shows the natural chain unless it says otherwise.
UniProt P16410: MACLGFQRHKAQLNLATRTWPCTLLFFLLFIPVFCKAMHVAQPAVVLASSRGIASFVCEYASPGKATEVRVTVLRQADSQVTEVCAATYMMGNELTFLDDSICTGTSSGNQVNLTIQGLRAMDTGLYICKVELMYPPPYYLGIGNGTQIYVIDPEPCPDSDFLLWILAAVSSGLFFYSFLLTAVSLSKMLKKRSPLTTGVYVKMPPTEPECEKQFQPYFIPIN

B1: HuJS007-16 (antibody, V domains shown)
VH: QVQLQESGPGLVKPSQTLSLTCTVSGYSITSGYYWNWIRQHPGKGLEWIGYIGYDGSNYYNPSLKSRVTISRDTSKNQFSLKLSSVTAADTAVYFCARNYYSGYFDFWGQGTTLTVSS
VL: EIVMTQSPATLSVSPGERATLSCRASQNVGTYVAWYQQKPGQAPRPLIYSTSYRYSGIPARFSGSGSGTEFTLTISSLQSEDFAVYYCHQYDTYPLTFGQGTKLEIK
B2: HuJS007-20 (antibody, V domains shown)
VH: QVQLQESGPGLVKPSETLSLTCTVTGYSITSGYYWNWIRQPAGKGLEWIGYIGYDGSNYYNPSLKSRVTISRDTSKNQFSLKLSSVTAADTAVYFCARNYYSGYFDFWGQGTTLTVSS
VL: DIQMTQSPSSLSASVGDRVTITCRASQNVGTYVAWYQQKPGKVPKPLIYSTSYRYSGVPSRFSGSGSGTDFTLTISSLQPEDVATYFCHQYDTYPLTFGAGTKLELK
B3: HuJS007-21 (antibody, V domains shown)
VH: QVQLQESGPGLVKPSETLSLTCTVTGYSITSGYYWNWIRQPAGKGLEWIGYIGYDGSNYYNPSLKSRVTISRDTSKNQFSLKLSSVTAADTAVYFCARNYYSGYFDFWGQGTTLTVSS
VL: DIQMTQSPSSLSASVGDRVTITCRASQNVGTYVAWYQQKPGKAPKPLIYSTSYRYSGVPSRFSGSGSGTDFTLTISSLQPEDFATYFCHQYDTYPLTFGAGTKLELK
B4: HuJS007-19 (antibody, V domains shown)
VH: QVQLQESGPGLVKPSETLSLTCTVTGYSITSGYYWNWIRQPAGKGLEWIGYIGYDGSNYYNPSLKSRVTISRDTSKNQFSLKLSSVTAADTAVYFCARNYYSGYFDFWGQGTTLTVSS
VL: DIVMTQSPDSLAVSLGERATINCKASQNVGTYVAWYQQKPGQPPKPLIYSTSYRYSGVPDRFSGSGSGTDFTLTISSLQAEDVAVYFCHQYDTYPLTFGAGTKLELK
B5: HuJS007-23 (antibody, V domains shown)
VH: QVQLQESGPGLVKPSETLSLTCTVTGYSITSGYYWNWIRQPAGKGLEWIGYIGYDGSNYYNPSLKSRVTISRDTSKNQFSLKLSSVTAADTAVYFCARNYYSGYFDFWGQGTTLTVSS
VL: DIQMTQSPSSLSASVGDRVTITCQASQNVGTYVAWYQQKPGKAPKPLIYSTSYRYSGVPSRFSGSGSGTDFTFTISSLQPEDIATYFCHQYDTYPLTFGAGTKLELK
B6: HuJS007-18 (antibody, V domains shown)
VH: QVQLQESGPGLVKPSQTLSLTCTVSGYSITSGYYWNWIRQHPGKGLEWIGYIGYDGSNYYNPSLKSRVTISRDTSKNQFSLKLSSVTAADTAVYFCARNYYSGYFDFWGQGTTLTVSS
VL: EIVMTQSPATLSVSPGERATLSCKASQNVGTYVAWYQQKPGQAPRPLIYSTSYRYSGIPARFSGSGSGTEFTLTISSLQSEDFAVYFCHQYDTYPLTFGQGTKLEIK
B7: HuJS007-22 (antibody, V domains shown)
VH: QVQLQESGPGLVKPSETLSLTCTVTGYSITSGYYWNWIRQPAGKGLEWIGYIGYDGSNYYNPSLKSRVTISRDTSKNQFSLKLSSVTAADTAVYFCARNYYSGYFDFWGQGTTLTVSS
VL: DIQMTQSPSFLSASVGDRVTITCRASQNVGTYVAWYQQKPGKAPKPLIYSTSYRYSGVPSRFSGSGSGTEFTLTISSLQPEDFATYFCHQYDTYPLTFGAGTKLELK
B8: HuJS007-17 (antibody, V domains shown)
VH: QVQLQESGPGLVKPSQTLSLTCTVSGYSITSGYYWNWIRQHPGKGLEWIGYIGYDGSNYYNPSLKSRVTISRDTSKNQFSLKLSSVTAADTAVYFCARNYYSGYFDFWGQGTTLTVSS
VL: DIVMTQSPDSLAVSLGERATINCKASQNVGTYVAWYQQKPGQPPKPLIYSTSYRYSGVPDRFSGSGSGTDFTLTISSLQAEDVAVYFCHQYDTYPLTFGQGTKLEIK

The binders below were run against huCTLA-4 ECD (his-tag) (human) (UniProt P16410) (assay: ELISA, coated huCTLA-4 his).

binding, binds:
B1, B2, B3, B4, B5, B6, B7, B8
